Library screening results

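Viability assay of Plasmodium falciparum sporozoites; the read-out is not stated. The concentration is filed as 10 mM, unlikely as a test dose, so the dose is not known. Higher reads as lower viability (inferred: compounds with an IC50 in retests scored well above the rest). Strong results were mostly tested again. Size under these conditions: about 34,000 compounds, about 280 of them at 50% or above in at least one test.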

Results are given as percent effect. The controls that fix the scale are not given in the record; negative values are as filed. This is an unselected part of the compounds tested. Two or more numbers in one place are separate tests of the same structure; such repeats can differ widely.

COc1ccc(C(NCc2ccc(C#N)cc2)C2CC2)cc1.Cl (stereo not drawn) read -15.39% & -18.1%. For CC(C)(C)C(=O)CN1CCc2ccccc2NCCC1=O the result was -1.818%. CCN(CC)C(=O)c1nnc2ccc(N3CCOCC3)cc2n1 gave 4.386%. For CN1C[C@@H](O)[C@]2(CCN(C(=O)c3ccccc3)C2)S1(=O)=O the result was -6.029%. Result for Cc1cnn(CC(C)NCc2ccc(OCc3nccn3C)cc2)c1 (stereo not drawn) was -10.36% & -28.49% & 43.61%. For O=C(O)C(F)(F)F.[H][C@]12CCC[C@@H](CN(C)C)[C@@]1([H])CN(c1ncccn1)C2 the result was 2.395%. CN(Cc1ccco1)C(=O)[C@H]1CSCN1C(=O)OC(C)(C)C read -8.394%. With CN(C)C(=O)CN1CCC2(CCCN(Cc3cccn3C)C2)C1=O.O=C(O)C(F)(F)F (stereo not drawn) the screen gave 7.266%.

Result for Cc1ccoc1C(=O)NC1CCN(C(=O)Nc2ccccn2)CC1 was 4.048%. For Cc1c[nH]c(C2COCCN2C(=O)CCc2c(C)n[nH]c2C)n1 (stereo not drawn) the result was 6.41%. COc1cccc(COCC(=O)N2CCCN(CC(N)=O)CC2)c1 gave 6.521%. Cc1cnn(CC2CN(Cc3cccc(OC(C)C)c3)CCO2)c1 (stereo not drawn) gave 1.236%. Cc1nn(C)c(Cl)c1C1CCCN1CC(=O)NCc1ccco1 (stereo not drawn) read 6.645%. O=C(C1CCOCC1)N1CCc2ncnc(-c3ccc(F)cc3)c2CC1 read -9.848%. CN(Cc1ccsc1)C(=O)Nc1ccc(N2CCCC2)nc1 read 6.605%. For CN(CCCc1cnn(C)c1)C(=O)C1COc2ccccc2C1 (stereo not drawn) the result was -4.841%.

Result for O=C(NC1CC1)N1CCC2(CC1)CC(N1CCOCC1)c1ccccc12.O=C(O)C(F)(F)F (stereo not drawn) was -12.69%. With Cc1cnn(CC2CN(Cc3ccc(C(N)=O)cc3)CCO2)c1 (stereo not drawn) the screen gave 4.424%. With CCC(O)CN1CCN(C(=O)Cc2nc(-c3ccco3)oc2C)CC1 (stereo not drawn) the screen gave 6.466%. For O=C(c1ccc(C2CCCO2)s1)N1CCN(c2ccccc2F)CC1 (stereo not drawn) the result was 80.46% & 89.28% & 82.47%. Result for O=C(O)[C@@H]1CN(C(=O)c2cc(C3CC3)n[nH]2)C[C@H]1c1cccc(F)c1 was -10.38%. Cc1nn(C)c(N(C)C)c1CNCc1ccnc(N2CCOCC2)c1 read 4.711% & -7.793% & 6.599%. Result for CSCCCNC(=O)C(c1cccc(F)c1)N(C)C (stereo not drawn) was -15%. Result for Cc1nc(N2CCOCC2)nc2c1CCN(Cc1cccnc1)CC2.O=C(O)C(F)(F)F was -7.251%.

CC(C)CCN1N=C(C(=O)N2CCCCCC2)S(=O)(=O)c2ccccc21 read -8.78% & -5.214%. With O=C(O)C(F)(F)F.O=C(O)C(F)(F)F.c1cnn(Cc2cnc3n2CCN(CC2CCCCC2)C3)c1 the screen gave 20.54%. CS(=O)(=O)N1CCc2nc(NC(=O)Nc3c(F)cccc3F)sc2C1 gave -3.424% & -10.33% & -4.217%. O=C(O)C(F)(F)F.O=C(O)C(F)(F)F.O=C(O)C(F)(F)F.[H][C@]12CCN(Cc3ccc(C)s3)CC[C@]1([H])N(Cc1ccncc1)CCO2 read 10.23%. For CN(C)CCN1CCC2(CCN(C(=O)c3ccc(F)cc3)CC2)C1=O.O=C(O)C(F)(F)F the result was -6.035%. Cc1ccccc1CC(=O)N(C)C1CCCC1 gave -0.7353%. O=C(NCc1ccccc1)N1CCc2ncnc(NC3CC3)c2CC1 gave 1.702%. Result for Fc1ccccc1OCCN1CCCCC1Cn1cncn1 (stereo not drawn) was -5.151%.

[H][C@@]12CC[C@H](Oc3cccc(F)c3)[C@]1([H])CN(C(=O)Cn1ccnc1)C2 gave -4.514%. For CN(C)c1ccc(CC2COCCN(Cc3nccn3C)C2)nn1 (stereo not drawn) the result was -1.339%. Cc1[nH]nc2ncc(C(=O)N3CCN(CC(O)C(C)(C)C)CC3)cc12 (stereo not drawn) read -11.5%. For Cc1cc2ncc(CN(C)C)c(C3CCN(C)CC3)n2n1 the result was 3.108%. O=C(Nc1cc(C(F)(F)F)c[nH]c1=O)N1CCOCC1 read 3.58%. Cc1nc(C2CN(C)CCO2)cc(N2CCC(CO)CC2)n1 (stereo not drawn) read 2.109%. Result for O=c1[nH][nH]cc1-c1ccnc(NCCN2CCCC2)n1 was -3.431%. CN(Cc1nccn1CC(F)(F)F)C(=O)c1ccc(F)cc1F read -4.397%.

For reference, 3 entries once more:

{"smiles": "COc1ccc(C(NCc2ccc(C#N)cc2)C2CC2)cc1.Cl", "stereo": "stereo not drawn", "effect": "-15.39 & -18.1"}
{"smiles": "CS(=O)(=O)N1CCc2nc(NC(=O)Nc3c(F)cccc3F)sc2C1", "effect": "-3.424 & -10.33 & -4.217"}
{"smiles": "O=C(O)C(F)(F)F.O=C(O)C(F)(F)F.c1cnn(Cc2cnc3n2CCN(CC2CCCCC2)C3)c1", "effect": 20.54}

Source: ChEMBL document CHEMBL3988442, “University of Dundee, Small-Polar-MMV Screening Library” (2021).